Experimental data from the supplement of paper PMC12067093, “Discovery and optimisation of a covalent ligand for TRIM25 and its application to targeted protein ubiquitination” (Chemical Science, 2025).
This is one part of the list.

Sequences of proteins named here, by UniProt entry; tags and fusion partners are left off. A change or cut given only in a name is not applied to a line headed by its entry.
UniProt Q8ND30: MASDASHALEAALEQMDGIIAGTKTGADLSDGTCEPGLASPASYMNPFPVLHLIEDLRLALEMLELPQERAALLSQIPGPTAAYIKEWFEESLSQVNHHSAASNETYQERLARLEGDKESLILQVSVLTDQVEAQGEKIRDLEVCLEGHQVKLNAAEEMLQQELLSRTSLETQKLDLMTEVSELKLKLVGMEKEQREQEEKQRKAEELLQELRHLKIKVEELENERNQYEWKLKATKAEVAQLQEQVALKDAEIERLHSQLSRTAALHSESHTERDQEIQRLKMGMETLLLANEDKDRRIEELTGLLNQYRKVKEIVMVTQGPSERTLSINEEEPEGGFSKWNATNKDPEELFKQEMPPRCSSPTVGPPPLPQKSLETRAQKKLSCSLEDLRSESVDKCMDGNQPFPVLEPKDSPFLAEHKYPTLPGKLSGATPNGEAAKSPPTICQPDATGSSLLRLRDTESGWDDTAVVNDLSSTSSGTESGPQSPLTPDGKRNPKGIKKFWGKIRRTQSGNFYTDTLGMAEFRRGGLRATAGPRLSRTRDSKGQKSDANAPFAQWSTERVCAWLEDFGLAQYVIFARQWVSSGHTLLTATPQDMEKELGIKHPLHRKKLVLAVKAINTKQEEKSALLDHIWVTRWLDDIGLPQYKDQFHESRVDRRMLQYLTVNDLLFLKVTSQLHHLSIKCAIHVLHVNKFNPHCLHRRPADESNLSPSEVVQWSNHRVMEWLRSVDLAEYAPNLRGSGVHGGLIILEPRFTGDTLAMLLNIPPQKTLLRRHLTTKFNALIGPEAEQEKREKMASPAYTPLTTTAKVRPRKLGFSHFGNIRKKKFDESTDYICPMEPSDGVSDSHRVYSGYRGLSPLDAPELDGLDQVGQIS
UniProt P16435: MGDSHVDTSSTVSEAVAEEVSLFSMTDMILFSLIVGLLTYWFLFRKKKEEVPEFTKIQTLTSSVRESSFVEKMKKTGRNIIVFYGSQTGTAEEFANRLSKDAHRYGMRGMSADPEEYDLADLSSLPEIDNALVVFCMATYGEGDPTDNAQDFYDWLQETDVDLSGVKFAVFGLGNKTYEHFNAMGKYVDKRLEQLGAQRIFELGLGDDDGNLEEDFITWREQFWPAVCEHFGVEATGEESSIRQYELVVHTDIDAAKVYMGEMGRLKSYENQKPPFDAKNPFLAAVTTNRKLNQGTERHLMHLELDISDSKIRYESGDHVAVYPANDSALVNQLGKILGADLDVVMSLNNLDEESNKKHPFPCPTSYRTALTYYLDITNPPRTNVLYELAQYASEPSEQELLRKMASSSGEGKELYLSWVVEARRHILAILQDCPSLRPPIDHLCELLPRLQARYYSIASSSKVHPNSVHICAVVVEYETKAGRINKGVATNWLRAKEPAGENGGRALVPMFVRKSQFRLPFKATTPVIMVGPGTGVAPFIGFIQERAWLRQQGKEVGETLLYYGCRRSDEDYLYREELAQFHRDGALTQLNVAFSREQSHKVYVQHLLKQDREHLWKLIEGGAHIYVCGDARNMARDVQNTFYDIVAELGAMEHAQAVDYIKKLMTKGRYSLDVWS
UniProt Q15165: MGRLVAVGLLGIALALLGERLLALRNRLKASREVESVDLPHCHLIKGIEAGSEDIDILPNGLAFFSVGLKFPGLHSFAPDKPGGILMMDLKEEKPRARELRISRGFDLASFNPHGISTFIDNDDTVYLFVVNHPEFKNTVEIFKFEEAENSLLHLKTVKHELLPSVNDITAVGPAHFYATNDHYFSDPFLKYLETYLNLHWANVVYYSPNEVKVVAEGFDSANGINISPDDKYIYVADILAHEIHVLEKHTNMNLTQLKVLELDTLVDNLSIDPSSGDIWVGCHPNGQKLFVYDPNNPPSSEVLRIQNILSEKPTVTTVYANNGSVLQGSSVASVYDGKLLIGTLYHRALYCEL
UniProt Q6PFW1: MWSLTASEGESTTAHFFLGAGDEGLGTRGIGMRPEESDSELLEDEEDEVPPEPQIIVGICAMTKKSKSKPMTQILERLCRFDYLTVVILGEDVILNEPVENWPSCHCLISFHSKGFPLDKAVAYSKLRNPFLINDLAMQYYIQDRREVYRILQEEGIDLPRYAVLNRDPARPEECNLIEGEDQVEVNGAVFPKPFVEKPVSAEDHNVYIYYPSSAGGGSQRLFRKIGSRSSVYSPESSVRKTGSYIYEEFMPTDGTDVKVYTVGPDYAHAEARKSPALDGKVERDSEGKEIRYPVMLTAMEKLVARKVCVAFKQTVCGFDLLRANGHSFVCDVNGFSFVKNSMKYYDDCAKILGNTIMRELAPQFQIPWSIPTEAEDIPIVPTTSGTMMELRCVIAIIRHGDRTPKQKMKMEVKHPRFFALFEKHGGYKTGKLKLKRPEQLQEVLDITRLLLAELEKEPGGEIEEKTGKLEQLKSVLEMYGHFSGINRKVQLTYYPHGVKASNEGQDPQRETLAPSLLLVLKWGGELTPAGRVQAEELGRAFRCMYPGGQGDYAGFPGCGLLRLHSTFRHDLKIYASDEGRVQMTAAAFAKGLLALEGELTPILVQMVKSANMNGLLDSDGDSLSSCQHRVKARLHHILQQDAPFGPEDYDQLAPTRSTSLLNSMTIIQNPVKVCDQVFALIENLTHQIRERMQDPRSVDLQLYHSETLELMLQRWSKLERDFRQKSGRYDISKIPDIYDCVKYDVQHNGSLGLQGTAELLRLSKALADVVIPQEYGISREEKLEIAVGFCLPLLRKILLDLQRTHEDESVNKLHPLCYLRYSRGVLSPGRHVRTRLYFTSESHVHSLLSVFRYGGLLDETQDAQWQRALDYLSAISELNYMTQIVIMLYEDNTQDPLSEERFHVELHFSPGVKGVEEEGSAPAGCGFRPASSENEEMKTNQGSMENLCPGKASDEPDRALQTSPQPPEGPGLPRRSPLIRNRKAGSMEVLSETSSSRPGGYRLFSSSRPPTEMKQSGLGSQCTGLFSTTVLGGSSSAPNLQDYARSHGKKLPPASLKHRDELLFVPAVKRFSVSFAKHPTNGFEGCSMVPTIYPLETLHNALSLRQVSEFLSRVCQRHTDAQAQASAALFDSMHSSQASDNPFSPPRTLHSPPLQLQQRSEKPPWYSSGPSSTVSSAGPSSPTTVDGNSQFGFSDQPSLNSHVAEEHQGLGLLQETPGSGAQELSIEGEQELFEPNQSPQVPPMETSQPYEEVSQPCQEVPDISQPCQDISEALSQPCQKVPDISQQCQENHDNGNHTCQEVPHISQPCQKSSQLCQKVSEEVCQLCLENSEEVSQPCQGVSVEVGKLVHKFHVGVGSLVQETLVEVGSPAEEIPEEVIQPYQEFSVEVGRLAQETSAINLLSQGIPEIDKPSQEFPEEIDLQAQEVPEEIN
UniProt Q7Z3K3: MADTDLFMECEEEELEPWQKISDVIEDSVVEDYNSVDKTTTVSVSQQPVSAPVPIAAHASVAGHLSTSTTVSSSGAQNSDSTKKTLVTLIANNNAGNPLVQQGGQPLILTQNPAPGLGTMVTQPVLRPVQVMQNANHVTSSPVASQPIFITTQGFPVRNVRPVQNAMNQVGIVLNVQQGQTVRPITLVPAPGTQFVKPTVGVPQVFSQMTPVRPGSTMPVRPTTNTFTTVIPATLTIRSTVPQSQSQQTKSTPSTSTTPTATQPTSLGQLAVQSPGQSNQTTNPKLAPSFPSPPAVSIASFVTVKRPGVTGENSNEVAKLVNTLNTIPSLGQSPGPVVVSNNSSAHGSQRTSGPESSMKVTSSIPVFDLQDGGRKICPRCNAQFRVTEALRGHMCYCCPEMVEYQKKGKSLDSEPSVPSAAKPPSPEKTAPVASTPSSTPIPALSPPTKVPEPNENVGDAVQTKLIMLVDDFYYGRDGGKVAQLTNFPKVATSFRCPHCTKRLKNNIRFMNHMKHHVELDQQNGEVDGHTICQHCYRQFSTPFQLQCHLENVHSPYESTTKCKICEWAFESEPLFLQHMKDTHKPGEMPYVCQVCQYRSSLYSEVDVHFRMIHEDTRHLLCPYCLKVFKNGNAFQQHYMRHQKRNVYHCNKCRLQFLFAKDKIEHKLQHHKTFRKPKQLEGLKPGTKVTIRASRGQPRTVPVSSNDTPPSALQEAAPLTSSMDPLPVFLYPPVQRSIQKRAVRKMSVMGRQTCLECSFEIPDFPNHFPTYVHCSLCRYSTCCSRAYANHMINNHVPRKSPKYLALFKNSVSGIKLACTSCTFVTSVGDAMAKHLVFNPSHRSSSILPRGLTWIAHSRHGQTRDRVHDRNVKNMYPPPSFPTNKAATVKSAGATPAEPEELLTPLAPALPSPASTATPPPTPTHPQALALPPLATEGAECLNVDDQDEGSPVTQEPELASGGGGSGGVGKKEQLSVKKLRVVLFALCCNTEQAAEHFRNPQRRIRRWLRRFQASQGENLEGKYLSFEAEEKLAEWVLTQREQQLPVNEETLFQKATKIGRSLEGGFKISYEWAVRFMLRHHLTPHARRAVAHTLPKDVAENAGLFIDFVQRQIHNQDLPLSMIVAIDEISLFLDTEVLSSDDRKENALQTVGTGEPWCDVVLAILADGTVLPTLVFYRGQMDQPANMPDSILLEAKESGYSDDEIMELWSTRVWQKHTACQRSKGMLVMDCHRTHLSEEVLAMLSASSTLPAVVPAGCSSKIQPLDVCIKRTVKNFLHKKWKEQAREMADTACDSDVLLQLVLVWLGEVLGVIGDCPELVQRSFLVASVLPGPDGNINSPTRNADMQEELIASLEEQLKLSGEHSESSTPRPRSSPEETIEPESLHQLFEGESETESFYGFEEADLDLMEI
UniProt Q96HA1, whole entry: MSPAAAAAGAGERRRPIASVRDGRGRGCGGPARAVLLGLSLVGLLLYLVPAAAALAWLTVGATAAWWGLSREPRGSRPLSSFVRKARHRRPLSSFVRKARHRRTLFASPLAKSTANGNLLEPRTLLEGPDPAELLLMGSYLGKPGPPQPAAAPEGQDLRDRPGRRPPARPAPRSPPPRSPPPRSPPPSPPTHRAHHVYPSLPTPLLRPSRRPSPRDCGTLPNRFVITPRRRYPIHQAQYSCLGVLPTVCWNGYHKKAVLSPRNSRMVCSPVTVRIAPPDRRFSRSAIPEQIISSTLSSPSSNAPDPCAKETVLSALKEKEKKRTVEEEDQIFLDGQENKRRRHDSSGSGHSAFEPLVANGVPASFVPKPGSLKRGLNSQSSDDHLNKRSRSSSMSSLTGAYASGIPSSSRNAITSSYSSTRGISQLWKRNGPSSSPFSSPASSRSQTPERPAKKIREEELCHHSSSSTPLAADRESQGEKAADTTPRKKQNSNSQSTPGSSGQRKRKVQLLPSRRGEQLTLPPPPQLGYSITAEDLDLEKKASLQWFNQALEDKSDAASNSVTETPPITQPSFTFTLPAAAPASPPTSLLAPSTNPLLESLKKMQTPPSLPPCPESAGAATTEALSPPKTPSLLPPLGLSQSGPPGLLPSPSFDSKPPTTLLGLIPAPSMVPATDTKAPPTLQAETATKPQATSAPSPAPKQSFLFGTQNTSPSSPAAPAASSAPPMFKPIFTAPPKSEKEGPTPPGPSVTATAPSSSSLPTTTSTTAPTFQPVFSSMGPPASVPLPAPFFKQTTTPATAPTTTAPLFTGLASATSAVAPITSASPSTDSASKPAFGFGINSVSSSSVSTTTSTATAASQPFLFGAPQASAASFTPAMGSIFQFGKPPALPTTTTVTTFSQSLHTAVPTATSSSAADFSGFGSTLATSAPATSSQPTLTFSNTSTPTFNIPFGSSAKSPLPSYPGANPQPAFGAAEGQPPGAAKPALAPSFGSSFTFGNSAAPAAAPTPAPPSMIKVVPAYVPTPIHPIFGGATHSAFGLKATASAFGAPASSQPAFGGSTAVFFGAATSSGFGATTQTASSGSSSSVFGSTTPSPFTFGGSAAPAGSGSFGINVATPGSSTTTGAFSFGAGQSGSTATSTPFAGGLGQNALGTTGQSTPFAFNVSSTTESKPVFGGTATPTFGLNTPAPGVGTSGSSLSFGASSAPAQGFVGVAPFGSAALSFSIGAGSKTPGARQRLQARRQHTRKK
UniProt P62937, whole entry, looked up: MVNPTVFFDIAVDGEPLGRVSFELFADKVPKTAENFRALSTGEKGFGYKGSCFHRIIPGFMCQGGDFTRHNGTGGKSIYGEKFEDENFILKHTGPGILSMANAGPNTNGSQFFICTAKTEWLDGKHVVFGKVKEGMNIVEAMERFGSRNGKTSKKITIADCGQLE
UniProt Q8NBL1: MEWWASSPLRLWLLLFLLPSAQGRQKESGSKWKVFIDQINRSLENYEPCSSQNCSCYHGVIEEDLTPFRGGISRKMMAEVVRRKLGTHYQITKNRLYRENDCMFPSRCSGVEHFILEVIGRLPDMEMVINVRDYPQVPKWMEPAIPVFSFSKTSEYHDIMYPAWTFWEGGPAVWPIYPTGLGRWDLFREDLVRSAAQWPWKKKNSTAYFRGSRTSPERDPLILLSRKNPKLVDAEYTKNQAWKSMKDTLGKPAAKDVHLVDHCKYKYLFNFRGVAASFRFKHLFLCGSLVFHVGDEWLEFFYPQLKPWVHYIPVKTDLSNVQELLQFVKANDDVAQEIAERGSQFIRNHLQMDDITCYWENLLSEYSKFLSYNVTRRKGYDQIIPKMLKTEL

Compound: Cc1cc(ccc1-c1ccccc1)C(=O)N1CCCN(CC1)C(=O)CCl [compound 10]
Assay: probe-labelled cysteine peptide fold change vs DMSO (competition) (log2 fold change); higher = less target engagement (more negative = stronger competition)
Conditions: THP-1, incubation time: 4 h
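Note: competitive profiling in live THP-1 cells: cysteine peptides tagged with an iodoacetamide desthiobiotin (IA-DTB) probe, intensity after compound treatment relative to DMSO-treated cells.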

Row | Target | probe-labelled cysteine peptide fold change (10 µM) | probe-labelled cysteine peptide fold change (50 µM)
1 | POLDIP2_Q9Y2S7_143_DCPHISQR (UniProt Q9Y2S7) | -0.119 | -0.779
2 | PPFIBP2_Q8ND30_685_CAIHVLHVNK (UniProt Q8ND30) | -0.0182 | 0.38
3 | POLR1C_O15160_256_CFSPGVIEVQEVQGKK (UniProt O15160) | -0.355 | -0.592
4 | POLD1_P28340_263_FMVDTDIVGCNWLELPAGK (UniProt P28340) | 0.0087 | -0.0448
5 | PPFIBP1_Q86W92_140_DLEFCLEEHREK (UniProt Q86W92) | -0.00273 | -0.000387
6 | POT1_Q9NUX5_503_SGHEDLELLDLSAPFLIQGTIHHYGCK (UniProt Q9NUX5) | 0.198 | 0.118
7 | POLR2G_P62487_127_HSIPSEMEFDPNSNPPCYK (UniProt P62487) | -0.102 | -0.0372
8 | POR_P16435_434_RHILAILQDCPSLRPPIDHLCELLPR (UniProt P16435) | 0.0383 | 0.279
9 | POLR2A_P24928_71_CQTCAGNMTECPGHFGHIELAK (UniProt P24928) | -0.172 | -0.0688
10 | PON2_Q15165_42_EVESVDLPHCHLIK (UniProt Q15165) | -0.264 | 0.0994
11 | PPIP5K1_Q6PFW1_627_SANMNGLLDSDGDSLSSCQHR (UniProt Q6PFW1) | -0.385 | -0.406
12 | POLR2B_P30876_892_DCSTFLR (UniProt P30876) | -0.225 | -0.0376
13 | POGZ_Q7Z3K3_624_HLLCPYCLK (UniProt Q7Z3K3) | -0.154 | -0.364
14 | POLR3C_Q9BUI4_9_LCSLLLQEHFGEIVEK (UniProt Q9BUI4) | 0.163 | -0.058
15 | PPA2_Q9H2U2_161_STNCFGDNDPIDVCEIGSK (UniProt Q9H2U2) | 0.0149 | -0.00969
16 | POP1_Q99575_893_EDFLQLHEDWHYCGPQESK (UniProt Q99575) | -0.175 | 0.0655
17 | PPFIBP2_Q8ND30_837_KFDESTDYICPMEPSDGVSDSHR (UniProt Q8ND30) | -0.274 | -0.184
18 | POM121_Q96HA1_217_DCGTLPNR (UniProt Q96HA1) | -0.11 | -0.441
19 | POLR1A_O95602_582_LHYANCK (UniProt O95602) | 0.0596 | 0.0131
20 | PPIA_P62937_161_KITIADCGQLE (UniProt P62937) | -0.0511 | 0.017
21 | POGLUT1_Q8NBL1_108_CSGVEHFILEVIGR (UniProt Q8NBL1) | 0.149 | -0.0627

Entries 8 to 13 of the list above:
Row | Target | probe-labelled cysteine peptide fold change (10 µM) | probe-labelled cysteine peptide fold change (50 µM)
8 | POR_P16435_434_RHILAILQDCPSLRPPIDHLCELLPR (UniProt P16435) | 0.0383 | 0.279
9 | POLR2A_P24928_71_CQTCAGNMTECPGHFGHIELAK (UniProt P24928) | -0.172 | -0.0688
10 | PON2_Q15165_42_EVESVDLPHCHLIK (UniProt Q15165) | -0.264 | 0.0994
11 | PPIP5K1_Q6PFW1_627_SANMNGLLDSDGDSLSSCQHR (UniProt Q6PFW1) | -0.385 | -0.406
12 | POLR2B_P30876_892_DCSTFLR (UniProt P30876) | -0.225 | -0.0376
13 | POGZ_Q7Z3K3_624_HLLCPYCLK (UniProt Q7Z3K3) | -0.154 | -0.364
